According to patent publication US8877927B2 (Grunenthal GmbH, priority 2006, dated 2014):
Some of these results come from one statement about several compounds together.

Assay: Liver microsomal incubations (RLM)
Type: in vitro ADME
Method: Human and rat liver microsomes were purchased from BD Gentest (Woburn, Mass., USA) and β-nicotinamide adenine dinucleotide 2′-phosphate reduced tetrasodium salt (NADPH) was purchased from Sigma-Aldrich (Poole, Dorset, UK). All liver microsome incubations were carried out in 50 mM potassium phosphate buffer at pH 7.4, with a final microsomal protein concentration of 0.5 mg/mL. Compounds were taken from 5 mM DMSO stock solutions and diluted in incubation buffer to give a final concentration of 25 μM, with a final DMSO concentration of 0.5% v/v. In brief, compounds were added to the incubation buffer along with the liver microsomes and incubated at 37° C. for 10 minutes. The reaction was then initiated by the addition of NADPH, previously dissolved in incubation buffer, to give a final concentration of 1 mM and re-incubated at 37° C. Aliquots were removed at 2 and 60 minutes and quenched with an equal volume of cold acetonitrile. After mixing vigorously, the precipitated protein matter was removed by filtration (Multiscreen Solvinert filter plates, Millipore, Bedford, Mass., USA) and the filtrate analysed by reverse phase HPLC with mass spectrometric detection, using single ion monitoring of the [M+H]^+ species. Metabolic turnover was determined by comparison of peak areas from the ion chromatograms of the parent compound at 2 and 60 minutes and expressed as percent remaining at 1 hour.

SMILES	remaining intact after 1 h incubation with rat liver microsomes [%]
CC(C)C[C@H](NC(=O)c1ccc(-c2csc(N3CCN(C)CC3)n2)cc1)C(=O)N1C[C@@H](F)[C@H]2OCC(=O)[C@H]21 [prior art compound 8.19]	< 10
CN1CCN(c2nc(-c3ccc(C(=O)N[C@H](C(=O)N4CC[C@H]5OCC(=O)[C@H]54)C4CCCC4)cc3)cs2)CC1 [prior art compound 13]	< 10
